Results from US8389766B2, “Insecticidal compounds” (Syngenta Crop Protection LLC, priority 2006, dated 2013).
Some of these results come from one statement about several compounds together.

How the values were obtained:
Format in all cases: in vivo
Spodoptera littoralis = Spodoptera littoralis (Egyptian cotton leafworm) cotton leaf disc spray test; conditions: 200 ppm sprayed on cotton leaf discs, 5 L1 larvae; mortality, feeding behaviour, growth regulation 3 DAT
Diabrotica balteata = Diabrotica balteata (corn root worm) larvae test on artificial diet; conditions: 200 ppm (concentration in well 18 ppm), L2 larvae, larval mortality, growth regulation after 5 days
Plutella xylostella = Plutella xylostella (diamond back moth) larvae test on artificial diet; conditions: 200 ppm (concentration in well 18 ppm), L2 larvae, larval mortality, growth regulation after 6 days
Tetranychus urticae = Tetranychus urticae (two-spotted spider mite) bean leaf disc spray test; conditions: 200 ppm sprayed on bean leaf discs, mixed ages; egg, larval and adult mortality 8 days later
Heliothis virescens = Heliothis virescens (tobacco budworm) egg test on artificial diet; conditions: 200 ppm (concentration in well 18 ppm), eggs 0-24 h old on artificial diet; egg mortality, larval mortality, growth regulation after 4 days

Cc1cc(C(F)(C(F)(F)F)C(F)(F)F)cc(C)c1NC(=O)c1ccc(C#N)c(N(C)C(=O)c2ccc([N+](=O)[O-])cc2)c1 [C5]
at least 80%: control of Spodoptera littoralis (Spodoptera littoralis) | control of Diabrotica balteata (Diabrotica balteata) | control of Plutella xylostella (Plutella xylostella) | control of Tetranychus urticae (Tetranychus urticae) | control of Heliothis virescens (Heliothis virescens)

Cc1cc(C(F)(C(F)(F)F)C(F)(F)F)cc(C)c1NC(=O)c1ccc(C#N)c(N(C)C(=O)c2ccc([N+](=O)[O-])cc2Cl)c1 [C9]
at least 80%: control of Spodoptera littoralis (Spodoptera littoralis) | control of Diabrotica balteata (Diabrotica balteata) | control of Plutella xylostella (Plutella xylostella) | control of Tetranychus urticae (Tetranychus urticae) | control of Heliothis virescens (Heliothis virescens)

CCc1cc(C(F)(C(F)(F)F)C(F)(F)F)cc(CC)c1NC(=O)c1ccc(C#N)c(N(C)C(=O)c2ccccc2OC)c1 [C34]
at least 80%: control of Spodoptera littoralis (Spodoptera littoralis) | control of Diabrotica balteata (Diabrotica balteata) | control of Plutella xylostella (Plutella xylostella) | control of Tetranychus urticae (Tetranychus urticae) | control of Heliothis virescens (Heliothis virescens)

CCc1cc(C(F)(C(F)(F)F)C(F)(F)F)cc(CC)c1NC(=O)c1ccc(C#N)c(N(C)C(=O)c2ccc(C(=O)OC)cc2)c1 [C40]
at least 80%: control of Spodoptera littoralis (Spodoptera littoralis) | control of Diabrotica balteata (Diabrotica balteata) | control of Tetranychus urticae (Tetranychus urticae) | control of Heliothis virescens (Heliothis virescens)

CSc1cc(C(F)(F)F)ccc1C(=O)Nc1c(C#N)ccc(C(=O)Nc2c(C)cc(C(F)(C(F)(F)F)C(F)(F)F)cc2C)c1F [D6]
at least 80%: control of Spodoptera littoralis (Spodoptera littoralis) | control of Tetranychus urticae (Tetranychus urticae)

Cc1cc(C(F)(C(F)(F)F)C(F)(F)F)cc(C)c1NC(=O)c1ccc(C#N)c(NC(=O)c2cccc(F)c2F)c1F [D19]
at least 80%: control of Spodoptera littoralis (Spodoptera littoralis) | control of Diabrotica balteata (Diabrotica balteata) | control of Plutella xylostella (Plutella xylostella) | control of Heliothis virescens (Heliothis virescens)

CCc1cc(C(F)(C(F)(F)F)C(F)(F)F)cc(CC)c1NC(=O)c1ccc(C#N)c(NC(=O)c2ccccc2Cl)c1F [D23]
at least 80%: control of Spodoptera littoralis (Spodoptera littoralis) | control of Diabrotica balteata (Diabrotica balteata) | control of Plutella xylostella (Plutella xylostella) | control of Heliothis virescens (Heliothis virescens)

CCc1cc(C(F)(C(F)(F)F)C(F)(F)F)cc(CC)c1NC(=O)c1ccc(C#N)c(NC(=O)c2cc(Cl)ccc2F)c1F [D28]
at least 80%: control of Spodoptera littoralis (Spodoptera littoralis) | control of Diabrotica balteata (Diabrotica balteata) | control of Plutella xylostella (Plutella xylostella) | control of Heliothis virescens (Heliothis virescens)

COCc1cc(C(F)(C(F)(F)F)C(F)(F)F)cc(C)c1NC(=O)c1ccc(C#N)c(NC(=O)c2ccc(C#N)cc2)c1F [D42]
at least 80%: control of Spodoptera littoralis (Spodoptera littoralis) | control of Diabrotica balteata (Diabrotica balteata) | control of Tetranychus urticae (Tetranychus urticae) | control of Heliothis virescens (Heliothis virescens)

COCc1cc(C(F)(C(F)(F)F)C(F)(F)F)cc(C)c1NC(=O)c1ccc(C#N)c(NC(=O)c2ccc(F)cc2Cl)c1F [D55]
at least 80%: control of Diabrotica balteata (Diabrotica balteata) | control of Plutella xylostella (Plutella xylostella) | control of Tetranychus urticae (Tetranychus urticae) | control of Heliothis virescens (Heliothis virescens)

CCc1cc(C(F)(C(F)(F)F)C(F)(F)F)cc(CC)c1NC(=O)c1cc(F)c(C#N)c(NC(=O)c2ccc(C#N)cc2)c1F [E4]
at least 80%: control of Spodoptera littoralis (Spodoptera littoralis) | control of Diabrotica balteata (Diabrotica balteata) | control of Plutella xylostella (Plutella xylostella) | control of Heliothis virescens (Heliothis virescens)

COCc1cc(C(F)(C(F)(F)F)C(F)(F)F)cc(C)c1NC(=O)c1cc(F)c(C#N)c(NC(=O)c2ccc(C#N)cc2)c1F [E45]
at least 80%: control of Spodoptera littoralis (Spodoptera littoralis) | control of Diabrotica balteata (Diabrotica balteata) | control of Plutella xylostella (Plutella xylostella) | control of Heliothis virescens (Heliothis virescens)
